Data reported in patent US7288622B1, “Composition for treatment of burns and wounds” (Issar Pharmaceuticals Pvt Ltd, priority 2006, dated 2007).
At least one peptide structure holds a part that was inferred or is arguable (an end, a ring closure or a residue). Residues, ends and D or L forms follow the SMILES beside them.

What was measured:
[1] = tested on: Pseudomonas aeruginosa MTCC 741; type: cell-based
[2] = tested on: Staphylococcus aureus MTCC96; type: cell-based

**Q.** C[C@H](NC(=O)[C@H](Cc1ccccc1)NC(=O)[C@H](C)NC(=O)[C@H](Cc1ccccc1)NC(=O)[C@H](CCCCN)NC(=O)[C@H](C)NC(=O)[C@H](Cc1ccccc1)NC(=O)[C@H](CCCCN)NC(=O)[C@H](CCCCN)NC(=O)[C@H](C)NC(=O)[C@H](Cc1ccccc1)NC(=O)[C@H](CCCCN)NC(=O)[C@H](CCCCN)NC(=O)[C@H](Cc1ccccc1)NC(=O)[C@H](CCCCN)NC(=O)[C@H](CCCCN)NC(=O)[C@H](C)NC(=O)[C@H](Cc1ccccc1)NC(=O)[C@H](CCCCN)NC(=O)[C@H](CCCCN)NC(=O)[C@H](C)NC(=O)[C@@H](N)Cc1ccccc1)C(=O)N[C@@H](Cc1ccccc1)C(=O)O [peptide] (H-FAKKFAKKFKKFAKKFAKFAFAF-OH; N-terminus and C-terminus assumed) was tested. Which “Exposure time needed to kill 100% of Pseudomonas aeruginosa bacteria” value ([1]; pH 7.24) did it give?
**A.** 4 h

**Q.** What about the “Exposure needed to kill the bacteria totally” value ([1]; pH 8.4, both concentrations) of the same molecule?
**A.** killing the bacteria totally within one hour exposure

**Q.** And the “Exposure needed to kill the bacteria totally” value ([2]; pH 7.2, both concentrations)?
**A.** killing the bacteria totally within an exposure of one hour

**Q.** What about the “Exposure time needed to kill 100% of Staphylococcus aureus-bacteria” value ([2]; pH 8.4) of the same molecule?
**A.** 4 h
